These are yes or no findings as the source states them, for the method shown. In cells and extracts the contact can be indirect. Some entries that bind do so weakly or less than the wild type. Tags and fused reporters may be left off the sequences shown.

Consider three molecules from paper doi:10.1101/2025.07.14.664640.

One assay addresses T1, TKS5-EGFP, Q5TCZ1.
T1 chain: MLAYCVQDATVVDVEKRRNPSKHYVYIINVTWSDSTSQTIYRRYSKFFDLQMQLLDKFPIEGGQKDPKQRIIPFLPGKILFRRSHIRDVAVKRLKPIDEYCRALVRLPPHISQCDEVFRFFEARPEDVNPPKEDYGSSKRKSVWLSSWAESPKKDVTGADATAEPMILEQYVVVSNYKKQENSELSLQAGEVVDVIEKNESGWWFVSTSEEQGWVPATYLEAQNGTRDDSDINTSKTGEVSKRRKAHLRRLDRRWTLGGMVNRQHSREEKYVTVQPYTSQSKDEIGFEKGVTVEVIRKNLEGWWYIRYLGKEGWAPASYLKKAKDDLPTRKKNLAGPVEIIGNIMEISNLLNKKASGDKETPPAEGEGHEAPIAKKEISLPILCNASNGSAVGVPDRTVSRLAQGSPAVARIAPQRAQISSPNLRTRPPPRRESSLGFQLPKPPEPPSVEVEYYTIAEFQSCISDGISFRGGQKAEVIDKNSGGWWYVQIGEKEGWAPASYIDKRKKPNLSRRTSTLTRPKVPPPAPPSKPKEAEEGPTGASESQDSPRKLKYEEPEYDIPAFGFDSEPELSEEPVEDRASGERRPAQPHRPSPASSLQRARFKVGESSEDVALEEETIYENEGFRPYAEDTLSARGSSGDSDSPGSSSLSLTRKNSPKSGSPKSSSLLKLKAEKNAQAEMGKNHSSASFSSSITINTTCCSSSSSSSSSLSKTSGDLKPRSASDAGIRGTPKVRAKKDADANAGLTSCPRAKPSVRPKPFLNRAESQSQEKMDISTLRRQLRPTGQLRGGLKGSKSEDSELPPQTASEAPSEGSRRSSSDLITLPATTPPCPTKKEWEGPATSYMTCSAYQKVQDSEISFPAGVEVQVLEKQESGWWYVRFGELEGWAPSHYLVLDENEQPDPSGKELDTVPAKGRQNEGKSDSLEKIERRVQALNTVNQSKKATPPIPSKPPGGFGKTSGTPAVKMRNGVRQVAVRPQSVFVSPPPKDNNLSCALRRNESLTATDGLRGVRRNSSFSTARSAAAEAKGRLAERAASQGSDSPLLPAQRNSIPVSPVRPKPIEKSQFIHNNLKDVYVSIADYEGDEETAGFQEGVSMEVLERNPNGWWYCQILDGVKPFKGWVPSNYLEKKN
In words: co-IP. The conditions noted are these: remark: other sources report otherwise.

Another assay concerns the target T2, TKS5-EGFP (UniProt Q5TCZ1).
T2 sequence: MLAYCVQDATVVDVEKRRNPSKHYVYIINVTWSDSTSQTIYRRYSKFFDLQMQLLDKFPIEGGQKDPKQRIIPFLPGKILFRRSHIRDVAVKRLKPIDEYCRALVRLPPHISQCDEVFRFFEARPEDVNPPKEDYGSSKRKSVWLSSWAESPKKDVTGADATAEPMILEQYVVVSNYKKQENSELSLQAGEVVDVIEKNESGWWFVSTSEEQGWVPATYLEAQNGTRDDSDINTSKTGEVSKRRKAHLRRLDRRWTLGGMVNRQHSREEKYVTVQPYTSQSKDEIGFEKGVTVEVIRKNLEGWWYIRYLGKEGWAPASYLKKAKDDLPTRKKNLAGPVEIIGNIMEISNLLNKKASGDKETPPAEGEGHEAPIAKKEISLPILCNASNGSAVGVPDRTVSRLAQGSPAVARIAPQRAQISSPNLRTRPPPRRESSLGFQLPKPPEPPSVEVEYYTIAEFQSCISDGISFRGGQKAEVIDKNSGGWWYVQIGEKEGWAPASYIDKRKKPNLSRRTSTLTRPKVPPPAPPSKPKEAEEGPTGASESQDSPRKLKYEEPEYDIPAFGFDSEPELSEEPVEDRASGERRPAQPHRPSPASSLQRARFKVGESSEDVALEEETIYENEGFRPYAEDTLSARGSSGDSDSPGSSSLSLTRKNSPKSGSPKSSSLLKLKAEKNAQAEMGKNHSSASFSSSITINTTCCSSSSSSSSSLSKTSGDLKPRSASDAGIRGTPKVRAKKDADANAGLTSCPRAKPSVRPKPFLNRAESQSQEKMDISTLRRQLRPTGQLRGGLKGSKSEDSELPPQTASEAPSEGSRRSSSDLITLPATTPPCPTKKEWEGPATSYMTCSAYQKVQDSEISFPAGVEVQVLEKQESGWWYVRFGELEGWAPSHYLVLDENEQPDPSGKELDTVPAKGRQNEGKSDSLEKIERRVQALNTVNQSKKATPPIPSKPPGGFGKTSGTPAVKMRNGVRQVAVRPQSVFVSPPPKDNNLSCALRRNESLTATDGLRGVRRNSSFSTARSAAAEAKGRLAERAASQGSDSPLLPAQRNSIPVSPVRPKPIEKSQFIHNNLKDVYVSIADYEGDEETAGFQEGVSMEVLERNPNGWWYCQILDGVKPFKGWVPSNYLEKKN
The assay can be described thus: co-IP.

Assay [1] addresses GST-SH3 (SH3 domain of cortactin fused to GST) (UniProt Q14247). In words: pull-down.

B1: Src substrate cortactin, endogenous in MKN-74 cells, Q14247 1-550 (protein)
chain: MWKASAGHAVSIAQDDAGADDWETDPDFVNDVSEKEQRWGAKTVQGSGHQEHINIHKLRENVFQEHQTLKEKELETGPKASHGYGGKFGVEQDRMDKSAVGHEYQSKLSKHCSQVDSVRGFGGKFGVQMDRVDQSAVGFEYQGKTEKHASQKDYSSGFGGKYGVQADRVDKSAVGFDYQGKTEKHESQRDYSKGFGGKYGIDKDKVDKSAVGFEYQGKTEKHESQKDYVKGFGGKFGVQTDRQDKCALGWDHQEKLQLHESQKDYKTGFGGKFGVQSERQDSAAVGFDYKEKLAKHESQQDYSKGFGGKYGVQKDRMDKNASTFEDVTQVSSAYQKTVPVEAVTSKTSNIRANFENLAKEKEQEDRRKAEAERAQRMAKERQEQEEARRKLEEQARAKTQTPPVSPAPQPTEERLPSSPVYEDAASFKAELSYRGPVSGTEPEPVYSMEAADYREASSQQGLAYATEAVYESAEAPGHYPAEDSTYDEYENDLGITAVALYDYQAAGDDEISFDPDDIITNIEMIDDGWWRGVCKGRYGLFPANYVELRQ
Turning to B1, in the assay with TKS5-EGFP, Q5TCZ1, the binding entry was “binds”.

B2: HCLS1-binding protein 3 (HS1BP3), endogenous in MKN-74 cells (protein, UniProt Q53T59 1-392)
chain: MQSPAVLVTSRRLQNAHTGLDLTVPQHQEVRGKMMSGHVEYQILVVTRLAAFKSAKHRPEDVVQFLVSKKYSEIEEFYQKLSSRYAAASLPPLPRKVLFVGESDIRERRAVFNEILRCVSKDAELAGSPELLEFLGTRSPGAAGLTSRDSSVLDGTDSQTGNDEEAFDFFEEQDQVAEEGPPVQSLKGEDAEESLEEEEALDPLGIMRSKKPKKHPKVAVKAKPSPRLTIFDEEVDPDEGLFGPGRKLSPQDPSEDVSSVDPLKLFDDPDLGGAIPLGDSLLLPAACESGGPTPSLSHRDASKELFRVEEDLDQILNLGAEPKPKPQLKPKPPVAAKPVIPRKPAVPPKAGPAEAVAGQQKPQEQIQAMDEMDILQYIQDHDTPAQAAPSLF
As for B2, the binding result is recorded as “no binding” with TKS5-EGFP and “binds” in assay [1].

B3: EGFP-HS1BP3 WT (protein, UniProt Q53T59 1-392)
chain: MQSPAVLVTSRRLQNAHTGLDLTVPQHQEVRGKMMSGHVEYQILVVTRLAAFKSAKHRPEDVVQFLVSKKYSEIEEFYQKLSSRYAAASLPPLPRKVLFVGESDIRERRAVFNEILRCVSKDAELAGSPELLEFLGTRSPGAAGLTSRDSSVLDGTDSQTGNDEEAFDFFEEQDQVAEEGPPVQSLKGEDAEESLEEEEALDPLGIMRSKKPKKHPKVAVKAKPSPRLTIFDEEVDPDEGLFGPGRKLSPQDPSEDVSSVDPLKLFDDPDLGGAIPLGDSLLLPAACESGGPTPSLSHRDASKELFRVEEDLDQILNLGAEPKPKPQLKPKPPVAAKPVIPRKPAVPPKAGPAEAVAGQQKPQEQIQAMDEMDILQYIQDHDTPAQAAPSLF
As for B3, the binding result in assay [1] was “binds”.
